Measurements reported in PubChem BioAssay AID1347076 (National Center for Advancing Translational Sciences (NCATS), 2019).
The campaign covered roughly 400,000 compounds. About 13,000 (3.2%) were called active. The shares of active, inactive and inconclusive entries below differ from those in the screen. Calls come from the whole dose curve; as a rule, active = well fitted cell-killing curve with a large enough effect; inconclusive = small, poorly fitted or top-dose-only effect, or effect the other way; inactive = flat fitted curve, though single readings scatter. Where the call is inconclusive, the potency comes from a doubtful curve fit.
% is set by controls: 0 for no effect and ±100 for the full control effect; potency is the fitted concentration of half-maximal effect.

Assay: qHTS assay for MDR1-selective chemotherapeutics: Primary screen using the drug-selected MDR subline cells KB-V1; note: nearly all actives have a fitted effect of over 60% in size
Settings: KB-V1 MDR cells viability, CellTiter-Glo, 72 h; activity change, negative = cytotoxicity: at 46.1 µM (top of the series)
In short: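 KB-V1 MDR subline cells in DMEM (phenol-red free, 10% FBS) exposed to compounds in qHTS concentration series for 72 h at 37 degrees C. Viability read by CellTiter-Glo luminescence; concentration-effect curves fitted after normalization and correction.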
With N#Cc1ccccc1S(=O)(=O)N1CCN(C(=O)c2cccc(S(=O)(=O)N3CCCC3)c2)CC1 the Potency was inconclusive: 25.9 µM [cytotoxic, partial curve, poor fit]. In the case of COCCNC(=O)c1ccc(CSc2nc3ccncc3n2Cc2ccccc2)cc1, the Potency is reported as inconclusive: 23.1 µM [rising, single point]. In the case of CCCCCCC1CC(C)(/C(C)=N/NC(N)=O)OC1=O (configuration not stated), the Potency is reported as inconclusive: 18.4 µM [cytotoxic, single point]. In the case of Cc1c(C(=O)NCc2cccs2)sc(=O)n1Cc1ccc(S(=O)(=O)N(C)C)cc1, the Potency is reported as inconclusive: 18.4 µM [cytotoxic, partial curve]. In the case of Cc1c(C=O)c2ccccc2n1CCOc1ccccc1F, the Potency is reported as inconclusive: 29.1 µM [cytotoxic, single point]. With CCOc1ccc(C(=O)c2cn(Cc3ccc(Cl)cc3)c3cc(OC)c(OC)cc3c2=O)cc1 the Potency was inconclusive: 20.6 µM [cytotoxic, single point]. With Cc1cc(O)cc2c1C1CCC3(C)C(O)CCC3C1C=C2 (configuration not stated) the Potency was inconclusive: 25.9 µM [cytotoxic, single point]. For Cc1ccnn1CC(=O)N/N=C/c1ccc([N+](=O)[O-])s1, the Potency was “inactive”. For Cc1ccc(CSc2nc3c(c(=O)[nH]c(=O)n3C)n2CCC(C)C)cc1, the Potency was inconclusive: 29.1 µM [cytotoxic, single point]. In the case of CCCCN1C[C@H](Cc2ccccc2)[C@@H](CC(=O)NCc2ccc(OC)cc2)C1=O, the Potency is reported as inconclusive: 5.8 µM [cytotoxic, partial curve]. In the case of COc1ccc(NC(=O)c2ccc(N3CCOCC3)nc2)cc1, the Potency is reported as “inactive”. With CC1CCN(C(=O)Cn2nnc(-c3cccs3)n2)CC1 the Potency was inconclusive: 7.31 µM [cytotoxic, partial curve]. With CCN1C(=O)[C@H]2[C@@H](c3ccc(-c4ccc(F)cc4)c(OC)c3)N3CCCC[C@@]3(C(=O)OC)[C@H]2C1=O the Potency was inconclusive: 20.6 µM [cytotoxic, single point]. With Cc1ccc(-n2ncc3c(=O)n(CC(=O)NCc4ccco4)cnc32)cc1 the Potency was inconclusive: 6.51 µM [cytotoxic, partial curve]. For Cc1ccccc1-c1cc2nc(NCCOc3ccccc3Cl)n(C)c(=O)c2s1, the Potency was inconclusive: 20.6 µM [cytotoxic, single point]. In the case of CC1CC(=O)Nc2ccccc2N1C(=O)Cn1cnc2ccc(Br)cc2c1=O (configuration not stated), the Potency is reported as inconclusive: 18.4 µM [rising, partial curve, poor fit]. With CCOc1ccc(C2NC(=O)C(C#N)=C(S)N2c2ccc(OC)cc2)cc1OC (configuration not stated) the Potency was “inactive”. In the case of COc1ccc(C(O)Cn2ccsc2=NC(C)=O)cc1 (configuration not stated), the Potency is reported as inconclusive: 29.1 µM [cytotoxic, single point]. In the case of Cc1ccc([C@@H]2C[C@H]3[C@@H](CN2S(=O)(=O)c2ccc(C)cc2)C(=O)C[C@@H](c2ccc(Cl)cc2)N3S(=O)(=O)c2ccccc2C)cc1, the Potency is reported as inconclusive: 14.6 µM [rising, partial curve]. In the case of COc1cccc(CC(NC(C)=O)C(=O)NC2CCN(S(=O)(=O)c3cccc4ccccc34)CC2)c1 (configuration not stated), the Potency is reported as inconclusive: 18.4 µM [cytotoxic, single point]. In the case of COc1ccc(Oc2c(C)oc3c(CN4CCOCC4)c(O)ccc3c2=O)cc1, the Potency is reported as “inactive”. For Cc1cc(C)n2nc(SCC(=O)Nc3ccccc3C)nc2n1, the Potency was “inactive”. With COc1cc(OC)c(OC)cc1/C=C1\CCC(C2CCCC2)C1=O (configuration not stated) the Potency was inconclusive: 18.4 µM [cytotoxic, partial curve, poor fit]. With CC(C)(C)Nc1nc(Nc2ccc([N+](=O)[O-])cc2)nc(NC(C)(C)C)n1 the Potency was inconclusive: 20.6 µM [cytotoxic, single point]. For c1ccc(-c2cn3nc(-c4ccccc4)c(-c4ccccc4)nc3n2)cc1, the Potency was active: 13 µM. With CC(C)c1ccc(NC(=O)NC2CCN(CC(=O)Nc3cccc4ccccc34)CC2)cc1 the Potency was inconclusive: 23.1 µM [cytotoxic, partial curve, poor fit]. For Cn1c(=O)[nH]c(=O)c2c1nc(N1CCCCC1)n2CCCSc1nc2ccccc2s1, the Potency was “inactive”. With CCN(CC)CCCNC(=O)c1cc(-c2ccc(Cl)cc2)on1 the Potency was “inactive”. In the case of CN(C)c1ccc(/C=C/c2ccnc3c(-c4ccccc4)cccc23)cc1, the Potency is reported as inconclusive: 18.4 µM [cytotoxic, single point]. With CCOc1ccccc1C(=O)N[C@H](C(=O)OCC(=O)Nc1nnc(-c2ccccc2)o1)C(C)C the Potency was inconclusive: 5.8 µM [cytotoxic, full curve]. In the case of CC(C)c1ccc(OC(=O)c2cc(-c3ccc(Cl)cc3)on2)cc1, the Potency is reported as inconclusive: 2.59 µM [rising, partial curve]. For CC(C)C(NC(=O)c1ccccc1NC(=O)c1ccccc1)C(=O)NCCCn1ccnc1 (configuration not stated), the activity change, negative = cytotoxicity was inconclusive: 39%. For Cc1ccc(N2CCN(C(=O)c3cc(-c4ccc(F)cc4)[nH]c3C)CC2C)cc1 (configuration not stated), the Potency was inconclusive: 23.1 µM [cytotoxic, single point]. In the case of CN1CCN(S(=O)(=O)c2cccc(C(=O)NCc3ccccc3Cl)c2)CC1, the Potency is reported as inconclusive: 23.1 µM [cytotoxic, partial curve]. With COc1cc(SC)ccc1C(=O)Nc1ccc(C)cc1C the Potency was active: 9.2 µM. In the case of Nc1c(C(=O)N2CCCC2)sc2nc3c(cc12)CCCCCC3, the Potency is reported as inconclusive: 5.17 µM [cytotoxic, partial curve]. For CC(C)=C[C@@H]1C[C@H](C)[C@H]2CC[C@H](C)c3c(O)c(O)c(C)c1c32, the Potency was “inactive”. In the case of O=S(=O)(c1ccc(C(F)(F)F)cc1)N1CCN(c2nc(-c3ccccc3)nc3ccccc23)CC1, the Potency is reported as “inactive”. With Cc1cc(F)ccc1S(=O)(=O)Nc1ccc2c(c1)CCCN2C(=O)c1cccs1 the Potency was inconclusive: 2.91 µM [cytotoxic, full curve]. With COc1ccc(N2C(=O)C(CC(=O)Nc3ccc(F)cc3)N(Cc3ccc4c(c3)OCO4)C2=O)cc1 (configuration not stated) the Potency was “inactive”. For Cc1ccc(-c2cc3nn(-c4ccccc4)c(N)c3c(=O)o2)cc1, the Potency was active: 16.4 µM. For Cc1ccc(Nc2c(N)c(=O)oc3ccccc23)cc1, the Potency was inconclusive: 29.1 µM [cytotoxic, single point]. In the case of OC1CCN(CC(O)C(F)(F)F)CC1 (configuration not stated), the Potency is reported as inconclusive: 9.2 µM [rising, partial curve, poor fit]. In the case of CC(=O)Nc1nnc(-c2ccco2)o1, the Potency is reported as “inactive”. With CCOC(=O)Cc1ccc(NC(=O)NCc2cccn2Cc2ccccc2)cc1 the Potency was “inactive”. For COc1ccc(NC(=O)COc2ccc(/C=C/c3cccc[n+]3C)cc2OC)cc1, the Potency was inconclusive: 23.1 µM [rising, partial curve]. For O=C1c2[nH]nc(-c3ccccc3O)c2C(c2ccccc2F)N1Cc1ccncc1 (configuration not stated), the Potency was inconclusive: 25.9 µM [rising, partial curve, poor fit]. With Cc1cccn2c(=O)c3cc(C(=O)NCCN4CCOCC4)c(=N)n(Cc4ccc(F)cc4)c3nc12 the Potency was inconclusive: 18.4 µM [cytotoxic, single point]. In the case of COc1cccc(C2CC(c3cccs3)=NN2C(=O)CSc2nc3ccccc3s2)c1OC (configuration not stated), the Potency is reported as active: 11.6 µM. With CCOC(=O)c1ccn(S(=O)(=O)c2ccc(C)cc2)c1-c1ccccc1 the Potency was inconclusive: 13 µM [cytotoxic, partial curve, poor fit]. With Cc1cc(C)c2[nH]c(=O)c(CN(CC3CCCO3)C(=S)Nc3ccccc3)cc2c1 (configuration not stated) the Potency was “inactive”. For CCN(CC)CCNc1nc(-c2ccco2)c2c(c1C#N)CC(C)(C)OC2, the Potency was inconclusive: 9.2 µM [cytotoxic, partial curve]. In the case of CN(c1ccccc1)S(=O)(=O)c1ccc(C(=O)NCc2ccccn2)cc1, the Potency is reported as inconclusive: 16.4 µM [cytotoxic, single point]. With COc1ccc(CC(N)c2csc(Nc3cccc(OC)n3)n2)cc1 (configuration not stated) the Potency was inconclusive: 16.4 µM [cytotoxic, single point]. With CC(=O)n1c(C=Nc2ccccc2)c(O)c2ccccc21 the Potency was inconclusive: 7.31 µM [cytotoxic, partial curve]. With COc1cccc(-n2cc3c(c2-c2ccccc2)c(=O)n(C)c(=O)n3C)c1 the Potency was inconclusive: 16.4 µM [cytotoxic, partial curve]. With Cc1ccc(NC(=O)CSc2nc(-c3cccs3)nc3cc(=O)[nH]n23)cc1 the Potency was inconclusive: 16.4 µM [rising, single point]. In the case of Cc1cccc(NC(=O)CCS(=O)(=O)c2ccc(Br)cc2)c1, the Potency is reported as inconclusive: 3.26 µM [cytotoxic, partial curve, poor fit]. In the case of CN1C(=O)C(CC(=O)Nc2ccc(F)cc2)N(CCCc2ccccc2)C1=S (configuration not stated), the Potency is reported as inconclusive: 29.1 µM [cytotoxic, single point]. For CCOc1ccc(C(=S)N2CCOCC2)cc1OC, the Potency was “inactive”. In the case of Cc1onc(-c2ccccc2Cl)c1C(=O)N1CCN(C/C=C/c2ccccc2)CC1, the Potency is reported as active: 14.6 µM. For CCOc1ccc(N2C(=O)CC(N)C2=O)cc1 (configuration not stated), the Potency was inconclusive: 29.1 µM [rising, single point]. In the case of Cc1ccc(-n2c(C)cc(/C=N/NC(=O)c3ccc(CN4CCOCC4)cc3)c2C)cc1, the Potency is reported as active: 16.4 µM. In the case of Cc1ccc(COc2ccc(/C=N/NC(=O)c3nnn(-c4nonc4N)c3COc3ccc(F)cc3)cc2)cc1, the Potency is reported as inconclusive: 29.1 µM [cytotoxic, single point]. In the case of CCOc1ccc(OCCC(=O)OCC(=O)Nc2ccc3c(c2)OCCO3)cc1, the Potency is reported as inconclusive: 25.9 µM [rising, single point]. With CSc1ncnc2[nH]ncc12 the Potency was “inactive”. With CC1Cc2nc(SCC(=O)Nc3ccc(F)cc3)n(C)c(=O)c2S1 (configuration not stated) the Potency was active: 4.11 µM.
